The test addresses 2F5 monoclonal antibody (human). Put plainly: SPR. A general note: Surface plasmon resonance follows binding to a sensor surface in real time, without labels.

B1: 2F5 epitope scaffold ES2 (designed binder)
chain: SDPVRQYLHEIGEVLELDKWAELGAAAKVEEGMEAIKKLSEATGLDQELIREVVRAKILGTAAIQKIPGLKEKPDPKTVEEVDGKLKSLPKELKRYLHIAREGEAARQHLIEANLRLVVSIAKKYTGRGLSFLDLIQEGNQGLIRAVEKFEYKRGFAFSTYATWWIRQAINRAIADQAR
What is called koff is a measure of how fast the partners let go of each other. Low readings indicate slow dissociation, high ones fast dissociation. As to B1, the koff is 0.00143 s⁻¹.

These data come from article PMC3027617 (2011).
